# Primary screen of a compound library

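Whole-cell assay for inhibitors of Mycobacterium tuberculosis growth, labelled Cornell in the record; the read-out is not stated. The concentration is filed as 10 mM, unlikely as a test dose, so the dose is not known. Higher means stronger inhibition (inferred from two other growth screens of the library). Of about 53,000 compounds tested this way, about 900 (1.7%) reached 50% or more in at least one test.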

Values are the deposited “Percent Effect”, in %. The controls that fix the scale are not given in the record; negative values are as filed. This is an unselected part of the compounds tested.

SMILES,percent effect
Cc1ccc(C(=O)Nc2ccc(N3CCC(O)CC3)c(C#N)c2)s1,10.9%
O=C(O)C(F)(F)F.O=C(O)C(F)(F)F.[H][C@@]12OCCC[C@]1([H])N(Cc1cccc(C)n1)C[C@@H]2NS(C)(=O)=O,12.09%
[H][C@@]12CS(=O)(=O)C[C@]1([H])N(C(=O)c1cc(C(C)C)no1)CCN2C(=O)C(C)C,24.89%
Cc1nc(C(C)(C)NC(=O)Nc2ccccc2)no1,-4.27%
Cc1nccn1-c1ccc(C(C)NCc2cc[nH]n2)cc1 (centres undefined),24.41%
c1cncc(-n2cnnc2CC2CCNCC2)c1,32.16%
Cc1ccc(C)c2c(O)cc(CNCC(=O)N3CCCC3)nc12,-3.923%
O=C(c1cnco1)N1CCC(Cc2cnc3ccccc3c2)CC1,64.83%
O=C(c1ccc(=O)[nH]n1)N1CC(c2nc(Cc3ccccc3)no2)C1,-3.483%
CC(C)C[C@H](N)COc1cccc(F)c1Oc1cccc(Cl)c1,106.7%
CN(C)c1cncc(-c2ccnc3c2ccn3C)n1,4.692%
O=S(=O)(Cc1ccccc1)NCC1CCN(c2cnccn2)CC1,11.56%
CN1CCCC1c1ccc(C(=O)Nc2c3c(nn2C)CCC3)s1 (centres undefined),36.98%
Cn1ncc2c1CCCN(C(=O)C1CC1)C2,-19.39%
CC(Oc1ccccc1C(F)(F)F)C(=O)NCC(=O)N1CCCC1 (centres undefined),-0.8334%
CC(=O)N1CCC(N2CCC(c3nc(C)cc(C)n3)C2)CC1.O=CO (centres undefined),-2.42%
Cc1noc(C)c1C(=O)N1CCCCC1c1cc(C)n2ccnc2n1 (centres undefined),8.224%
CNC(=O)C1CC2(CCN(C(=O)c3csnn3)CC2)c2ccccc21 (centres undefined),3.963%
Cc1nnsc1C(=O)NCCn1ccc(-c2ccncc2)n1,-21.7%
Cc1nc(C2CCCN(C(=O)C3=NN(C(C)C)C(=O)CC3)C2)no1 (centres undefined),25.74%
O=C(Nc1ccc(F)cc1)N1CCC2(CCC(=O)N(C3CC3)C2)CC1,3.885%
CCn1ccnc1C1CCCN(C(=O)c2sc(C)nc2C)C1 (centres undefined),15.24%
CNC(=O)N1CCCCC1c1nnc2n1CCCC2 (centres undefined),-9.001%
CC(=O)CSc1sc2c(O)cc(=O)[nH]c2c1C(N)=O,36.35%
COCCN1CC(Nc2nc(C3CCCC3)nc3c2cnn3C)CC1=O (centres undefined),-4.265%
COc1ccc(F)c(CN2CCCC(O)(CNCc3ccon3)C2=O)c1 (centres undefined),-20.43%
O=C(O)C(F)(F)F.O=C(O)C(F)(F)F.[H][C@@]12COC[C@]1(COc1cccnc1)CN(Cc1cccc(OC)c1)C2,4.225%
O=C(c1ccc[nH]1)N1CCOC2(COCCN(c3cncnc3)C2)C1 (centres undefined),-33.7%
O=c1[nH]c(-c2ccncc2)ncc1-c1ccnc(NC2CC2)n1,-55.09%
CCCC(=O)N1CCC(Nc2nc(O)cc(-c3ccsc3)n2)CC1,47.07%
[H][C@@]12CCN(Cc3cccnc3OC)[C@]1([H])CC[C@@H](c1nnc(C)o1)O2,12.6%
Cl.Cn1nc(C2CCN(C(=O)Cc3ccsc3)CC2)c2cccnc21,20.32%
NC(=O)COc1ccc(CN2CCNC(C(=O)NC3CC3)C2)cc1Cl (centres undefined),-20.15%
CCc1nnc(SC2CCN(c3ccccc3F)C2=O)n1C (centres undefined),19.71%
[H][C@@]12CS(=O)(=O)C[C@]1([H])N(C(=O)c1ccc3oc(C)cc3c1)CCN2CCO,-26.08%
O=C(c1cn(-c2ccccc2Cl)nn1)N1CCN(CCO)CC1,8.641%
CCOc1cc(C(=O)O)cc(-c2ccccc2)c1OC,7.736%
O=C(O)C(F)(F)F.O=C(O)C(F)(F)F.[H][C@@]12CN(Cc3ccc(C)s3)CCC[C@]1(C(=O)O)CN(CCOC)C2,-16.47%
CC(C)c1nnc2n1CCN(CCCS(=O)(=O)c1ccccc1)C2,6.243%
CNc1nc(C(=O)NCc2cccnc2N(C)C)cs1,28.41%
COc1ccc(C(=O)N2CCC(Oc3cccc(C)c3)(C(=O)O)CC2)o1,-4.59%
COc1ccc2[nH]cc(-c3ccnc(NC4CCCC4)n3)c2c1,104.1%
CC(c1ccc(F)cc1F)N1CCN(CCC(=O)O)CC1.Cl (centres undefined),-0.513%
CCOc1ccc(NC(C)=O)cc1S(=O)(=O)Nc1nccs1,7.151%
COCCn1ccnc1C1CCN(C(=O)C(O)c2ccc(F)cc2)CC1 (centres undefined),8.967%
COCCCNCc1cc(O)c2cc(C)cc(C)c2n1,3.207%
OC[C@H]1CCCN1c1nccc(-c2cncnc2C2CCCCC2)n1,2.124%
[H][C@@]12CCN(C(=O)c3cnccn3)C[C@@]1([H])O[C@H](C)C2,12.93%
Cn1ncc2c(NC3CCCN(C(=O)C4CC4)C3)nc(C(C)(C)C)nc21 (centres undefined),-3.727%
O=C(CCN1CCOCC1)Nc1cccc(CNCc2cccs2)c1,-16.63%
N#Cc1ccc(CNC(=O)NC2CCCN(c3ncccn3)C2)cc1 (centres undefined),-7.258%
Cc1cc2nc(C(=O)NCc3cccnc3N(C)C)cc(C)n2n1,26.23%
Cc1cc(C[S+]([O-])CC(=O)NCc2cccc(Cl)c2)no1 (centres undefined),-23.36%
CC1(C)CC1C(=O)NS(=O)(=O)Cc1cc(-c2ccccc2)no1 (centres undefined),12.28%
CCCN1CCc2nc(SCc3ccccc3)[nH]c(=O)c2C1,-38.56%
Cc1cnc2n(c1=O)C(CC(=O)NCc1ccco1)CS2 (centres undefined),22.84%
COc1ccc(NC(=O)CCC2CCCN(S(=O)(=O)C3CC3)C2)c(C)c1 (centres undefined),-32.47%
Cc1nc(N2CCCC2)nc2c1CCN(Cc1nccn1C)CC2.O=C(O)C(F)(F)F,0.1901%
O=C(O)COc1ccc(Cl)cc1CN1CCC2(CCOCC2)CC1,7.99%

Source: ChEMBL document CHEMBL3988442, “University of Dundee, Small-Polar-MMV Screening Library” (2021).